The other results are listed elsewhere or left out.
Experiments:
Test in all cases: log2 fold change, soluble protein after heating vs DMSO (PISA); higher = thermal stabilisation; K562 cells, 10 uM, 30 min; active = over 0.2 and 3.5 SD of the protein, either way, in both replicates (recomputed)
[1] = compound: C1=CC=C(C=C1)[C@H](COC2=CC3=C(C=C2)NC(=O)N3)NC(=O)C4=CC=CN(C4=O)CC5=CC(=C(C=C5)F)F
Outline: (§1)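 Values are thermal stability changes relative to control samples and are taken from duplicates. They are stated as log2 fold changes. Before quantification by TMTpro 16plex LC-MS/MS with equalised channel sums, K562 cells at 2×10^6 cells/mL were treated with 10 μM compound for 30 min, heated in aliquots for 3 min across 48°C-58°C, pooled, extracted in PBS with 0.5% NP-40 at 4°C, and centrifuged at 21,000xg for 90 min to give the soluble supernatant.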

Sequences of proteins named here, by UniProt entry; tags and fusion partners are left off. A change or cut given only in a name is not applied to a line headed by its entry.
UniProt Q02094: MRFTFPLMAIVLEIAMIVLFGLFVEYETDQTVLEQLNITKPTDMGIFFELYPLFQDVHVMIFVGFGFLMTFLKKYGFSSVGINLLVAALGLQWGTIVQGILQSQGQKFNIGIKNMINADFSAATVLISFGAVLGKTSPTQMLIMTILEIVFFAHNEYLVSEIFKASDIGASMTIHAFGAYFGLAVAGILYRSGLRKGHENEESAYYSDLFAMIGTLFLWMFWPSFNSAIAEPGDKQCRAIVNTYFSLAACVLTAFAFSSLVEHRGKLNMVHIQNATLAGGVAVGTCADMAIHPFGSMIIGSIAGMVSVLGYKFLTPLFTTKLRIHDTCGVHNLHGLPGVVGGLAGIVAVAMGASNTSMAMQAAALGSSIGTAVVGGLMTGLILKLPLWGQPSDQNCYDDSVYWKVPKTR
UniProt Q96D15: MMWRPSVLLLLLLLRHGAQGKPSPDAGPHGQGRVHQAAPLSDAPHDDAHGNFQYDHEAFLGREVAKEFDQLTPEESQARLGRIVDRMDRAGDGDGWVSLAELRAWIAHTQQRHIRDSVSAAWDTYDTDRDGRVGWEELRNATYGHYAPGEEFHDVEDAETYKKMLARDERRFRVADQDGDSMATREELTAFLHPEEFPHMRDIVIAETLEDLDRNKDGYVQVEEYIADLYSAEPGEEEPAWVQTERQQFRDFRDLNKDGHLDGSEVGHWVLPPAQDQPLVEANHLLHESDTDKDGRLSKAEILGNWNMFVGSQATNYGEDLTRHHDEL
UniProt Q8IXI1, whole entry, looked up: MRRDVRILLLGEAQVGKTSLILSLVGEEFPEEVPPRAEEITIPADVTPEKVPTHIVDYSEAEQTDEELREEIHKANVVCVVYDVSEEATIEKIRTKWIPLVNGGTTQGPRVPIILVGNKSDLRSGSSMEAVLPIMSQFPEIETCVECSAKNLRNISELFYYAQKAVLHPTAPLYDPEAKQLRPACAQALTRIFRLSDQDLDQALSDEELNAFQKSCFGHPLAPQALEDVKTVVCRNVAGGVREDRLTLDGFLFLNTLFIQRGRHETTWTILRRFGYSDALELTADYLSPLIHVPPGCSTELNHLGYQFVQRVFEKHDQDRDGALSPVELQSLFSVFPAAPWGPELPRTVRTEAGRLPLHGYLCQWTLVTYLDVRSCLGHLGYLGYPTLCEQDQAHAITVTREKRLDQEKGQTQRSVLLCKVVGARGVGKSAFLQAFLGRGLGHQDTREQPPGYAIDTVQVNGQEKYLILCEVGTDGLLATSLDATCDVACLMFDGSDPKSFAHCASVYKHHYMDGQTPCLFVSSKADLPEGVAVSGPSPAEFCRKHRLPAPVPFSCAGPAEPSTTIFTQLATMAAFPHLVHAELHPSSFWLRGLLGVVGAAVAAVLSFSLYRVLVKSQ
UniProt Q9HBH5: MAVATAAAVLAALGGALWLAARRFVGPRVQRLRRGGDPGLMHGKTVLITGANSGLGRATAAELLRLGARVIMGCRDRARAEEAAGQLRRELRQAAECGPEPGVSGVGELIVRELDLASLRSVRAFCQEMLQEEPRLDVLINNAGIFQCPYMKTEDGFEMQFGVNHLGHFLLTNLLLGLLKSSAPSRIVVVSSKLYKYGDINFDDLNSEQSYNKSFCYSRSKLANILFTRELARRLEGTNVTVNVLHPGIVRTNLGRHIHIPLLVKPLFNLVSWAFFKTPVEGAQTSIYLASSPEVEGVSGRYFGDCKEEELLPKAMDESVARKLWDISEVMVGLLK
UniProt Q9UKL0, whole entry, looked up: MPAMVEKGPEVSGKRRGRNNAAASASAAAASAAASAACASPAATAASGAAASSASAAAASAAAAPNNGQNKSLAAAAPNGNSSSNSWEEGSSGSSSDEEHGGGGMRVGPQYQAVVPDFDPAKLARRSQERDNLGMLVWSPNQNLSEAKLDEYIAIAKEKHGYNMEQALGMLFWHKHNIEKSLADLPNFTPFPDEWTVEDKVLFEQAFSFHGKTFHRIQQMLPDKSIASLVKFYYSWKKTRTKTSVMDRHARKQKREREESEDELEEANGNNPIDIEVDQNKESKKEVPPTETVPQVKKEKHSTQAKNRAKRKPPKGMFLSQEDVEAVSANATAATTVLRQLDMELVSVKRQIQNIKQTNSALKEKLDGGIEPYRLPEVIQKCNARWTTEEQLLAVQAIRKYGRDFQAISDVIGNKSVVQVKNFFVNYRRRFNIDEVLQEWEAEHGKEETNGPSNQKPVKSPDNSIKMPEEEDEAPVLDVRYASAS
UniProt Q9Y508: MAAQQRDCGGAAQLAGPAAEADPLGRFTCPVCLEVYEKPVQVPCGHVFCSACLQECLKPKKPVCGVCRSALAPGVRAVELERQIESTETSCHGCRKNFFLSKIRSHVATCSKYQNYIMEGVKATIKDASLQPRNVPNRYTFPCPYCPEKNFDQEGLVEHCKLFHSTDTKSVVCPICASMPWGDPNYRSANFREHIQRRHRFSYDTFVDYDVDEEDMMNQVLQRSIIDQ
UniProt P51606: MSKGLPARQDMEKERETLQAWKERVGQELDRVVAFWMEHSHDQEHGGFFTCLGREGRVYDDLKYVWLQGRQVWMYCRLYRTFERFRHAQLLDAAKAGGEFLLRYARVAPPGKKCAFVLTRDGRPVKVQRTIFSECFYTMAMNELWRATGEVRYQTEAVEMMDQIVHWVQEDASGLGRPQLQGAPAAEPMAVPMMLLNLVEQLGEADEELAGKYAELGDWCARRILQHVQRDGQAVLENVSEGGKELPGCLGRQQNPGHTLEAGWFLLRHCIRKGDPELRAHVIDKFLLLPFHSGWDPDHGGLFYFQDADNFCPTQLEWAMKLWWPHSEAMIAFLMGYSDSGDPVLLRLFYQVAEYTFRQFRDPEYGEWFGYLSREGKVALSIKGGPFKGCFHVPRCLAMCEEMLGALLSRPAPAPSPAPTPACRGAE
UniProt Q9BQY4: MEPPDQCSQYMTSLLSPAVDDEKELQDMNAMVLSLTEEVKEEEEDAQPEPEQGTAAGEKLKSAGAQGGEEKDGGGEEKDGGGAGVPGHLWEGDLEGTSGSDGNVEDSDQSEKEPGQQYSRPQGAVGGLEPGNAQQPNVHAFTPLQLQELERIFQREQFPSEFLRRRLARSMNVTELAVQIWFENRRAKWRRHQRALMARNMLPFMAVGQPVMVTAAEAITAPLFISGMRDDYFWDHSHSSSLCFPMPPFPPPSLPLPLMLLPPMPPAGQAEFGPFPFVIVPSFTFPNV
UniProt P62877, whole entry, looked up: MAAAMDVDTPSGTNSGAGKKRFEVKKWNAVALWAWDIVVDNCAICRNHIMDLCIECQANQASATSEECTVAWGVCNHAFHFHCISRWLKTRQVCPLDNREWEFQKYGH
UniProt Q96PM5: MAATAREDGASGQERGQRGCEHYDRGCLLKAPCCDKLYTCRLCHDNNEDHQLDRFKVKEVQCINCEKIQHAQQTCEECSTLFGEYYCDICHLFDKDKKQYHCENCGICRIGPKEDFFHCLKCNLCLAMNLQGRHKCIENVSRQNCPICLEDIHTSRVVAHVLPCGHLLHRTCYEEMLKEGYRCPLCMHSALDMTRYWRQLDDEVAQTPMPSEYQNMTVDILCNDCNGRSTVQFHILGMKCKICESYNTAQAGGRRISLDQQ
UniProt O75792: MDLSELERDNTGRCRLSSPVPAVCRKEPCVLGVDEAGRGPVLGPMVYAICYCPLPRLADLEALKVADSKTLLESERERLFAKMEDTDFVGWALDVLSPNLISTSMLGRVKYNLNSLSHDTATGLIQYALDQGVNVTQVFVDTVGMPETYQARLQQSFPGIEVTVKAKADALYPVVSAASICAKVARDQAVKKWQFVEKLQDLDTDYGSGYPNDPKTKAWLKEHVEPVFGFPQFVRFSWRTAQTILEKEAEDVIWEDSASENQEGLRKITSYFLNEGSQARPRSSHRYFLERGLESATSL
UniProt Q92546: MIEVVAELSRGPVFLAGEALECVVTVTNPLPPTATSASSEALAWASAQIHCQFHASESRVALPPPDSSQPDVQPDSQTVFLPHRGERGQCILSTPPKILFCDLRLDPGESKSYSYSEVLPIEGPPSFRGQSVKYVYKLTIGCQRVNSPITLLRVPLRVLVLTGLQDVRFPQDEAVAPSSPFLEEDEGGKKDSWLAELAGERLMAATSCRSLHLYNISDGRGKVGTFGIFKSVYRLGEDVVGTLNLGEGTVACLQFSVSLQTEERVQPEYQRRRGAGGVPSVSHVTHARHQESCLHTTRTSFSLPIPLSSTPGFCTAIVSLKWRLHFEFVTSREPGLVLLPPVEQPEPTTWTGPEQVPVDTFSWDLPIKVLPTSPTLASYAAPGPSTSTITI
UniProt Q4ADV7: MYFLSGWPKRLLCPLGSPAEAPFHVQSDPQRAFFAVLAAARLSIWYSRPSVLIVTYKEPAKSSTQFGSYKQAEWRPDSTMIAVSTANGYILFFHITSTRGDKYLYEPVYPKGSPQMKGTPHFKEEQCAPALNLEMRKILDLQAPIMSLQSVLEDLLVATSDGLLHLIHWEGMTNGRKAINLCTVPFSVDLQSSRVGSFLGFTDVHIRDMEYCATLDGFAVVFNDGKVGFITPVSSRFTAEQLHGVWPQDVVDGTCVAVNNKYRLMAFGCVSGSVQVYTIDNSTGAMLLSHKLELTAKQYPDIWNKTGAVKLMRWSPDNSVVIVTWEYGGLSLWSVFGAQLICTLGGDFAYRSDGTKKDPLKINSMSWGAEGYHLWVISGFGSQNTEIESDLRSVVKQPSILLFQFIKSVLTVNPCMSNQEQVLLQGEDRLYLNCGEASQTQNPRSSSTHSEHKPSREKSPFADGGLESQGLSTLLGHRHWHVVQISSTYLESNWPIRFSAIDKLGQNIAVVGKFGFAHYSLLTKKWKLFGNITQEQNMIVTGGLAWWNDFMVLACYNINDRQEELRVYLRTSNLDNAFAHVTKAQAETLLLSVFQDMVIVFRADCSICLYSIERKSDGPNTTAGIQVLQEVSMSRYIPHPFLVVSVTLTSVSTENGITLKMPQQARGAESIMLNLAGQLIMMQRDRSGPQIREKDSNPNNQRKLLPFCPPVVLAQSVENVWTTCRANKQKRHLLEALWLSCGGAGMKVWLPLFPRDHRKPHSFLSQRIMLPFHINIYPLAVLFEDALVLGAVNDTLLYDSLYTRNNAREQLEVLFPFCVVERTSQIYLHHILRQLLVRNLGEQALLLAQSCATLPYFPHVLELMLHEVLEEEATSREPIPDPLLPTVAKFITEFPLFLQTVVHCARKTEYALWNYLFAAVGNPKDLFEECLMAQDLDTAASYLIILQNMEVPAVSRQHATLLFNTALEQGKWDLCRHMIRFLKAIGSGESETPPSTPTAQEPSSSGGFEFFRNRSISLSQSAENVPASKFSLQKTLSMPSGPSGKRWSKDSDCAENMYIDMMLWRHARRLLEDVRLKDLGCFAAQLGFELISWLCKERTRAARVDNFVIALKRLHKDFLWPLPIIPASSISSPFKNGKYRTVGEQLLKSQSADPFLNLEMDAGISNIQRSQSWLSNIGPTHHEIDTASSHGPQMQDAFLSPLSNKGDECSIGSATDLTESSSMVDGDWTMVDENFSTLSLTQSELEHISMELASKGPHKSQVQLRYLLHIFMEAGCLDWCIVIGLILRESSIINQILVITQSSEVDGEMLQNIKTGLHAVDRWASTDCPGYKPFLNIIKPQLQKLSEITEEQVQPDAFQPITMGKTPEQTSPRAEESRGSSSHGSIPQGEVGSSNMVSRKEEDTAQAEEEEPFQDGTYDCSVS
UniProt Q02161: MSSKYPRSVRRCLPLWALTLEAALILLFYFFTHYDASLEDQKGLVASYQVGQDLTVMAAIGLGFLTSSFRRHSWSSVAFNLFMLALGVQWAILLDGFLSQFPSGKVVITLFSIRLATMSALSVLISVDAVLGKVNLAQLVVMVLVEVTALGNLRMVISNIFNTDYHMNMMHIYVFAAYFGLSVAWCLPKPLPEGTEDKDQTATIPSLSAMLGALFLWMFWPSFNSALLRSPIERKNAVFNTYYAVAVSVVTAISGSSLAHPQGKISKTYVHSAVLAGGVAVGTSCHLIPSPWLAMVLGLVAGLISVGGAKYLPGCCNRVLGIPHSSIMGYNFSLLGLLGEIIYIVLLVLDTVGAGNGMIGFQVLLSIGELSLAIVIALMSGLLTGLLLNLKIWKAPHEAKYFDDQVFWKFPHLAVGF
UniProt Q6NTF9: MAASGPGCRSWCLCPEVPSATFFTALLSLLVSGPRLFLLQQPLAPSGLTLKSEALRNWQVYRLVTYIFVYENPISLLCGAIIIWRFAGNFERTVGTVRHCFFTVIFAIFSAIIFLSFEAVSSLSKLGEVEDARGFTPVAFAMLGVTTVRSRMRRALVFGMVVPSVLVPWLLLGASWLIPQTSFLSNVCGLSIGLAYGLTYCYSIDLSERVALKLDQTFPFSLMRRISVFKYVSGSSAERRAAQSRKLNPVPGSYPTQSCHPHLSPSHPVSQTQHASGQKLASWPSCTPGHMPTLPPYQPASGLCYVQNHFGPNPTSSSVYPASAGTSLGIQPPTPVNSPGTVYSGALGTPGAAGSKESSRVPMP

[2] = compound: CC1=C(SC2=C1C(=N[C@H](C3=NN=C(N32)C)CC(=O)N)C4=CC=C(C=C4)Cl)C
Outline: as §1

[3] = compound: CC1=C2C(=CC=C1)N=C(N(C2=O)C3=CC=CC=C3C)CN4C=NC5=C(N=CN=C54)N
Outline: as §1

[4] = compound: Cc1sc2c(c1C)C(c1ccc(Cl)cc1)=N[C@@H](CC(=O)OC(C)(C)C)c1nnc(C)n1-2
Outline: as §1

[5] = compound: c1ccc([C@@H]2C[C@H]2NC2CCNCC2)cc1
Outline: as §1

Measured: log2 fold change

RELCH isoform 2 (UniProt Q9P260)
inactive: [1] -0.084 | [2] 0.07 | [3] -0.14 | [4] 0.091 | [5] -0.005

RMND1 (UniProt Q9NWS8)
inactive: [1] 0.035 | [2] 0.073 | [3] 0.101 | [4] -0.015 | [5] -0.008

RELN (UniProt P78509)
inactive: [1] 0.024 | [2] -0.006 | [3] 0.022 | [4] 0.016 | [5] -0.025

RIPK2 (UniProt O43353)
inactive: [1] -0.013 | [2] 0 | [3] -0.003 | [4] 0.004 | [5] -0.055

RHAG (UniProt Q02094)
inactive: [1] -0.063 | [2] 0.035 | [3] -0.061 | [4] -0.148 | [5] 0.061

RCN3 (UniProt Q96D15)
inactive: [1] 0.016 | [2] 0.032 | [3] -0.061 | [4] -0.01 | [5] 0.023

REEP3 (UniProt Q6NUK4)
inactive: [1] -0.052 | [2] 0.015 | [3] 0.041 | [4] 0.006 | [5] 0.043

RHEB (UniProt Q15382)
inactive: [1] 0.008 | [2] 0.04 | [3] 0.055 | [4] -0.048 | [5] -0.001

RHOT2 (UniProt Q8IXI1)
inactive: [1] 0.025 | [2] 0.032 | [3] 0.093 | [4] -0.009 | [5] -0.081

RDH14 (UniProt Q9HBH5)
inactive: [1] 0.128 | [2] 0.139 | [3] 0.038 | [4] 0.01 | [5] -0.037

RCOR1 (UniProt Q9UKL0)
active: [5] 0.856
inactive: [1] -0.113 | [2] 0.021 | [3] 0.114 | [4] 0.006

RIOX2 (UniProt Q8IUF8)
inactive: [1] -0.008 | [2] 0.031 | [3] 0.013 | [4] 0.054 | [5] -0.21

RNF114 (UniProt Q9Y508)
inactive: [1] -0.039 | [2] 0.025 | [3] 0.039 | [4] -0.005 | [5] 0.012

RENBP (UniProt P51606)
inactive: [1] -0.047 | [2] 0.042 | [3] 0.063 | [4] -0.04 | [5] -0.027

RHOXF2 (UniProt Q9BQY4)
inactive: [1] 0.004 | [2] -0.031 | [3] 0.024 | [4] 0.012 | [5] 0.057

RFT1 (UniProt Q96AA3)
inactive: [1] 0.008 | [2] 0.025 | [3] 0.034 | [4] -0.034 | [5] 0.083

RELA (UniProt Q04206)
inactive: [1] -0.013 | [2] 0.056 | [3] 0.03 | [4] 0.031 | [5] 0.008

RNASEH2C (UniProt Q8TDP1)
inactive: [1] -0.015 | [2] 0.055 | [3] 0.056 | [4] -0.061 | [5] -0.046

RING1 (UniProt Q06587)
inactive: [1] -0.037 | [2] -0.012 | [3] 0.089 | [4] -0.017 | [5] -0.081

RNF149 (UniProt Q8NC42)
inactive: [1] -0.021 | [2] 0.003 | [3] -0.026 | [4] 0.001 | [5] -0.026

RNF220 (UniProt Q5VTB9)
inactive: [1] 0.004 | [2] 0.072 | [3] 0.14 | [4] -0.045 | [5] 0.038

RBX1 (UniProt P62877)
inactive: [1] -0.031 | [2] 0.005 | [3] 0.031 | [4] 0.02 | [5] 0.014

RIC8A isoform 3 (UniProt Q9NPQ8)
inactive: [1] -0.033 | [2] 0.02 | [3] 0.015 | [4] -0.041 | [5] -0.094

RCHY1 (UniProt Q96PM5)
inactive: [1] 0.012 | [2] 0.022 | [3] 0.034 | [4] 0.035 | [5] 0.007

RBP4 (UniProt P02753)
inactive: [1] -0.118 | [2] -0.125 | [3] 0.029 | [4] 0.152 | [5] 0.187

RNASEH2A (UniProt O75792)
inactive: [1] -0.008 | [2] 0.065 | [3] 0.183 | [4] -0.025 | [5] -0.01

RMC1 (UniProt Q96DM3)
inactive: [1] -0.009 | [2] 0.064 | [3] 0.1 | [4] 0.019 | [5] 0.063

RMDN3 (UniProt Q96TC7)
inactive: [1] -0.01 | [2] 0.048 | [3] 0.065 | [4] 0.014 | [5] -0.049

2 successive records from above:
RHAG (UniProt Q02094)
inactive: [1] -0.063 | [2] 0.035 | [3] -0.061 | [4] -0.148 | [5] 0.061

RCN3 (UniProt Q96D15)
inactive: [1] 0.016 | [2] 0.032 | [3] -0.061 | [4] -0.01 | [5] 0.023

The list goes on.

RGP1 (UniProt Q92546)
inactive: [1] -0.204 | [2] -0.043 | [3] 0.072 | [4] -0.025 | [5] -0.049

RIC1 (UniProt Q4ADV7)
inactive: [1] -0.006 | [3] -0.024

RFC1 (UniProt P35251)
inactive: [2] -0.294 | [3] 0.051 | [4] 0.123 | [5] -0.183

RNF168 (UniProt Q8IYW5)
inactive: [1] 0.108 | [4] -0.025

RHD (UniProt Q02161)
inactive: [2] -0.023 | [4] 0.014 | [5] 0.134

RHBDD2 isoform 2 (UniProt Q6NTF9)
inactive: [1] -0.133 | [2] -0.009 | [5] 0.005

RMDN2 isoform 2 (UniProt Q96LZ7)
inactive: [3] 0.164

RIPOR1 isoform 4 (UniProt Q6ZS17)
inactive: [4] 0.288

RNF20 (UniProt Q5VTR2)
inactive: [1] -0.008 | [2] 0.137 | [4] 0.121 | [5] 0.03

RCBTB1 (UniProt Q8NDN9)
inactive: [1] 0.037 | [2] -0.067 | [5] 0.492

RC3H1 (UniProt Q5TC82)
inactive: [2] -0.199 | [3] -0.06 | [4] 0.101 | [5] -0.187

RHBDD1 (UniProt Q8TEB9)
inactive: [1] 0.051 | [2] 0.04 | [3] -0.255 | [5] 0.033

From the supplement of paper PMC10849652
